The supplement of paper PMC10849652
The list shows a part of the results.

The chains behind the UniProt entries cited, without tags or fusion partners. Where a name states a change or a piece, a line headed by the entry shows the natural chain unless it says otherwise.
UniProt Q14694, whole entry, looked up: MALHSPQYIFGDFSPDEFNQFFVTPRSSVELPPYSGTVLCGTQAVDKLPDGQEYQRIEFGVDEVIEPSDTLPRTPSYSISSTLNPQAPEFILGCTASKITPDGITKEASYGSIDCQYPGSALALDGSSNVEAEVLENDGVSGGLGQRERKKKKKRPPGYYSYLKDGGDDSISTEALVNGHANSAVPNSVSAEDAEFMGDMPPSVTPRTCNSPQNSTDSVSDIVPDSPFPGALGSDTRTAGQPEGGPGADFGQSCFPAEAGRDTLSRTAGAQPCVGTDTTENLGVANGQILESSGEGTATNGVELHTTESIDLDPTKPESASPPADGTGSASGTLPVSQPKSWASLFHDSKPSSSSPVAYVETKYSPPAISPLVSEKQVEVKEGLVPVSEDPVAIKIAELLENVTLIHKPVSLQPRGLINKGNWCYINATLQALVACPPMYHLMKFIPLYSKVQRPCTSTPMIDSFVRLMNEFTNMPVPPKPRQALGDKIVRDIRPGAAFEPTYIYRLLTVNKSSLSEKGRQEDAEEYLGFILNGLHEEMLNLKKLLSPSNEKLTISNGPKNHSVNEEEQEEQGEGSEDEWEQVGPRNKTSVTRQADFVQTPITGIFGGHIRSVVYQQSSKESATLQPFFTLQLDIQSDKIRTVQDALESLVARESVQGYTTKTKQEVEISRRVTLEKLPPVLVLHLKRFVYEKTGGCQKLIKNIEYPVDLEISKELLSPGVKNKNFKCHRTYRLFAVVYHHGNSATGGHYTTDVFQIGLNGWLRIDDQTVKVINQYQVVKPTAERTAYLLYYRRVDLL
UniProt Q96RU2: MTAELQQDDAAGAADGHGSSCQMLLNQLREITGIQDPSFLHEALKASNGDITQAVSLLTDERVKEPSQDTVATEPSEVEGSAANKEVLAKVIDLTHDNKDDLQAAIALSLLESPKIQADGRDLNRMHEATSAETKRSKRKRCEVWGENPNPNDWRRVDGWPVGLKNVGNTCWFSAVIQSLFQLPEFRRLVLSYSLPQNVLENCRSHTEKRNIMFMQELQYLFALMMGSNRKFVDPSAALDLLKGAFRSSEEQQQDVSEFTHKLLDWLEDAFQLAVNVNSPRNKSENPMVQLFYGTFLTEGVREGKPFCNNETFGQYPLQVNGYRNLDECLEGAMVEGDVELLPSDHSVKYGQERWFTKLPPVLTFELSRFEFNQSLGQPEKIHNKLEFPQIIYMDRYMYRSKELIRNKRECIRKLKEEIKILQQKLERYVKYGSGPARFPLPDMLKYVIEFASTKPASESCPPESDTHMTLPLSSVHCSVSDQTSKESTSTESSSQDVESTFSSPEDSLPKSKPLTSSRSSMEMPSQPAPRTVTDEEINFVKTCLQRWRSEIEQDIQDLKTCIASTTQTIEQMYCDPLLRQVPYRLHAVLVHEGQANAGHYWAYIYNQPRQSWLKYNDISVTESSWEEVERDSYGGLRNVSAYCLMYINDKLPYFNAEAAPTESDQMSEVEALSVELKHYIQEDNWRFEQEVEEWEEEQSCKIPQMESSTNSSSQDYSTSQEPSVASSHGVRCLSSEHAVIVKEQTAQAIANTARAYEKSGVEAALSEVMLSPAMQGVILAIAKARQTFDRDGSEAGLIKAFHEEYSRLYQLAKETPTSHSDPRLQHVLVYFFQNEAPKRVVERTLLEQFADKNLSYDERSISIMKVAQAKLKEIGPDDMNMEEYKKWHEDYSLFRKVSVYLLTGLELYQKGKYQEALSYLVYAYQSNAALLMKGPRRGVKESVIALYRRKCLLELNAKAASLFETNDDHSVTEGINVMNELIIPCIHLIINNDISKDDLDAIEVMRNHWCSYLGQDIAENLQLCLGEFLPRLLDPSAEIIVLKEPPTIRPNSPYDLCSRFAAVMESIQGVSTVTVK
UniProt Q9UPU5: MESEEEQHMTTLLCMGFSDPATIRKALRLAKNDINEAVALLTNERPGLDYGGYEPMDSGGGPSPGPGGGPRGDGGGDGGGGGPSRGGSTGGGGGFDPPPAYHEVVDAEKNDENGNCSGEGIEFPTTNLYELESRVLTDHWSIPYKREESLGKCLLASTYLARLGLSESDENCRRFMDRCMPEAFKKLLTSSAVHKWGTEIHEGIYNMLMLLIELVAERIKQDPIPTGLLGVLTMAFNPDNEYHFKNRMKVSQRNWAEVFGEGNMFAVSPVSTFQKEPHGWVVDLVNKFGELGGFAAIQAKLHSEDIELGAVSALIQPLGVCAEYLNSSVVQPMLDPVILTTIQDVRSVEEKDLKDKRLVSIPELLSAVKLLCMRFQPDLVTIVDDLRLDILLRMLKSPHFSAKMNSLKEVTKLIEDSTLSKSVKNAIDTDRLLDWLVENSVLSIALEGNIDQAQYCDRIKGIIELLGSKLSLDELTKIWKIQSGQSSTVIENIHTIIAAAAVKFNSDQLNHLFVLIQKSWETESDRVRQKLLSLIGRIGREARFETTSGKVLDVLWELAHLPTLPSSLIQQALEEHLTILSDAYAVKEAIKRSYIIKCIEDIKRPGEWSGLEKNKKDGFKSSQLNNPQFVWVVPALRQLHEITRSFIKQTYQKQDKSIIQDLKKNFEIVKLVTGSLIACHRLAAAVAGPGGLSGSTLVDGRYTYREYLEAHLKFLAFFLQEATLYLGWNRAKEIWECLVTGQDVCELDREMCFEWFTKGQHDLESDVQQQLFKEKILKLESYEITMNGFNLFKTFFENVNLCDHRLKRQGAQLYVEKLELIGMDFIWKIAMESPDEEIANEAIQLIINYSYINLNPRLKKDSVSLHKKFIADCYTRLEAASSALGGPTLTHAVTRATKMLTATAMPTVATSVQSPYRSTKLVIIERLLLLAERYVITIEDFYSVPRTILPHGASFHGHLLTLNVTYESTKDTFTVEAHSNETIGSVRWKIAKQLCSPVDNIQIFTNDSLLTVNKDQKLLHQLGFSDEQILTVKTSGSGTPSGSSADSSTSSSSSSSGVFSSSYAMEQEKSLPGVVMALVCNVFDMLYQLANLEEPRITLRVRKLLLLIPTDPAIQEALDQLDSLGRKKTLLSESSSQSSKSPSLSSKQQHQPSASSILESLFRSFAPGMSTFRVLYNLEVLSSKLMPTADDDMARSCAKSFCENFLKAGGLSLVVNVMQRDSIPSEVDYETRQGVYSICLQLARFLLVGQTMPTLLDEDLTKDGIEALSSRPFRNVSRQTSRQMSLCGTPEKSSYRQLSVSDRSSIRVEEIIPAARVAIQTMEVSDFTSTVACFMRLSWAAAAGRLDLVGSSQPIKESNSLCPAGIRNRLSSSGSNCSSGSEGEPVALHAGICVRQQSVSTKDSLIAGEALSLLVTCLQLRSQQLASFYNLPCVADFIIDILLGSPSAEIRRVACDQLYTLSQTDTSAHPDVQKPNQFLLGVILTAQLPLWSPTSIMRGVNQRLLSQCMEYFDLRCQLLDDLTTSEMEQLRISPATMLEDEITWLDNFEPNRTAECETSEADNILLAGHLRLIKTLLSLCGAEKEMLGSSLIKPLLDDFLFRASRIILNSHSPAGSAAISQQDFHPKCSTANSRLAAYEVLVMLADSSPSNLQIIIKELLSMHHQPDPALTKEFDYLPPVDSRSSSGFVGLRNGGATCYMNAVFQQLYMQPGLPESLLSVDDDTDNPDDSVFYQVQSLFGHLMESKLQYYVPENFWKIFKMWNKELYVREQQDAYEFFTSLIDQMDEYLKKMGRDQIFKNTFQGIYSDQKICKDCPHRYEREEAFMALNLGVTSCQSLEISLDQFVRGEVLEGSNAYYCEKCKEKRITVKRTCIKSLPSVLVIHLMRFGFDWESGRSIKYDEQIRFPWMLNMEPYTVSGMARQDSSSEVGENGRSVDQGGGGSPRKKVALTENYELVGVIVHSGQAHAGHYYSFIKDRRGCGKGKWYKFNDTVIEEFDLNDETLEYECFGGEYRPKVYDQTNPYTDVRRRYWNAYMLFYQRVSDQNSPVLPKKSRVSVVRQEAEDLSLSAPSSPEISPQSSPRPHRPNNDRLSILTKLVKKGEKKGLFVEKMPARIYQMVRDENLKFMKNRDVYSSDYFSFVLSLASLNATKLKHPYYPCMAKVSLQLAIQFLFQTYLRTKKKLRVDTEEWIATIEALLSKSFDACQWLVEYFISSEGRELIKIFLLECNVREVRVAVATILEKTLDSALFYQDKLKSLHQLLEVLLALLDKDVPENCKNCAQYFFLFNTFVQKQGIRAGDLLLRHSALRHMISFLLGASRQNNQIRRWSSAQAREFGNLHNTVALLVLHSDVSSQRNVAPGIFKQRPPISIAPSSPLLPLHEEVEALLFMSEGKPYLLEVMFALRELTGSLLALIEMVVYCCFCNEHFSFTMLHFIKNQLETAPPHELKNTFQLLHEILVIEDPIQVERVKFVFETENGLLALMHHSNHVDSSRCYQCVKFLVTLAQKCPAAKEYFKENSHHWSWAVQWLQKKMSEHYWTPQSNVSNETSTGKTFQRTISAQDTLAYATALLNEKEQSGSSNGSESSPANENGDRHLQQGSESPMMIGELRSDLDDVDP
UniProt A6NIH7: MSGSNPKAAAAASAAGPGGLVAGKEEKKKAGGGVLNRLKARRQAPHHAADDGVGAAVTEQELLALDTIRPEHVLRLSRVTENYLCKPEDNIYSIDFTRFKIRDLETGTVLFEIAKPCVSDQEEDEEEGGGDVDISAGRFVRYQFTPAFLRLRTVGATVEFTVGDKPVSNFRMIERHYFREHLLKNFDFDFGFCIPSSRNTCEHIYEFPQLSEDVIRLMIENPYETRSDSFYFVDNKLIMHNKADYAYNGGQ
UniProt Q16851: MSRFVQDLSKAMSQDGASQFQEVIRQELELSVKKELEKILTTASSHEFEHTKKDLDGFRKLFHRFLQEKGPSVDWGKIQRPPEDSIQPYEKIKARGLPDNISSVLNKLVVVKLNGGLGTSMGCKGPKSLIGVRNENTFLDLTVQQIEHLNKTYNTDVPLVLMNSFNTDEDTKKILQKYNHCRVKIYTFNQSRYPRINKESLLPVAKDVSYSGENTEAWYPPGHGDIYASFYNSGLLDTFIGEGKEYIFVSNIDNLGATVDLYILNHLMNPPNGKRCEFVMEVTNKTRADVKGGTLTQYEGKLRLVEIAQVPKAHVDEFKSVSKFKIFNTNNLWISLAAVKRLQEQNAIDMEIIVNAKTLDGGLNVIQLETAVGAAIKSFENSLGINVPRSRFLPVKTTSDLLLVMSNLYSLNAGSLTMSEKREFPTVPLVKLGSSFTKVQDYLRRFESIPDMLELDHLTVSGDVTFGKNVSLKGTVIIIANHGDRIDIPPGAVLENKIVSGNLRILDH
UniProt Q13107: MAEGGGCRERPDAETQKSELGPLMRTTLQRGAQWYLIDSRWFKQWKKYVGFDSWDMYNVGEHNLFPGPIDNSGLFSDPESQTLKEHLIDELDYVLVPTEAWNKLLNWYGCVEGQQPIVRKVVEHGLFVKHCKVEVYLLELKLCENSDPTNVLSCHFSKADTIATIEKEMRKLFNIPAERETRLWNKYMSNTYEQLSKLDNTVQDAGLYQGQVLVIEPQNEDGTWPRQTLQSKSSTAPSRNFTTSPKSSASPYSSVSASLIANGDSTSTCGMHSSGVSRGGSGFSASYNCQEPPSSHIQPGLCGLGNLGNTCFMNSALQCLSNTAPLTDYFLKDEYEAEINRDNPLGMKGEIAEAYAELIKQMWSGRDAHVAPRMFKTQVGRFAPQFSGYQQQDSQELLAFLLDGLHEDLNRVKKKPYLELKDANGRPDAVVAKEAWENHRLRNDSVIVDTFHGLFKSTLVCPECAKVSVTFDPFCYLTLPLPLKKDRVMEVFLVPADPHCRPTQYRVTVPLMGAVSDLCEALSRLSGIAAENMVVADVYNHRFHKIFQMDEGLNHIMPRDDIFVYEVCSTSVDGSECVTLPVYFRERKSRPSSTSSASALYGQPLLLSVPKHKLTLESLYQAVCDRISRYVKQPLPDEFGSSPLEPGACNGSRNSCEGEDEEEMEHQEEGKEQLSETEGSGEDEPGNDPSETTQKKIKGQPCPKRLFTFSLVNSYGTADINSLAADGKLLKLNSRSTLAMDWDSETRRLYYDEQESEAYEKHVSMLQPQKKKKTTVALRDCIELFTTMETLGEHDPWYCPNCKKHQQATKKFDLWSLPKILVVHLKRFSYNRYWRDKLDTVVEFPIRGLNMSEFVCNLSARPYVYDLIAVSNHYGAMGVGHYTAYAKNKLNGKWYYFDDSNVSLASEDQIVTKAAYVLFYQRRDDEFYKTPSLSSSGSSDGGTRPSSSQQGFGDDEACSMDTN
UniProt Q96BW1: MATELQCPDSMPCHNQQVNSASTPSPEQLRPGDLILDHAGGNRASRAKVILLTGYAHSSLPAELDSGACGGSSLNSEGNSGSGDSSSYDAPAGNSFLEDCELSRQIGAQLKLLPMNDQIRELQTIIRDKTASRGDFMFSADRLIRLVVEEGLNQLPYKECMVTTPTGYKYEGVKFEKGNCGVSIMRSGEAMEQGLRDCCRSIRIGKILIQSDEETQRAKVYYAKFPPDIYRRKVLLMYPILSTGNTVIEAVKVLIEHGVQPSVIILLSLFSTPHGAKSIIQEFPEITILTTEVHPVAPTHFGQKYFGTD

How the values were obtained:
Assay in all cases: log2 fold change, soluble protein after heating vs DMSO (PISA); higher = thermal stabilisation; K562 lysate, 10 uM; active = over 0.2 and 3.5 SD of the protein, either way, in both replicates (recomputed)
[1] = compound: C#Cc1cccc(Nc2ncnc3cc(OCCOC)c(OCCOC)cc23)c1 [erlotinib]
Summary of the method: (§1)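 A 30 min treatment with 10 μM compound was applied to crude K562 extract at 1 mg/mL protein in PBS pH 7.4 with 1 mM MgCl2. Heating for 3 min spanned 48°C-58°C, after which aliquots were pooled, adjusted to 0.5% NP-40 at 4°C and spun at 21,000xg for 90 min. TMTpro 16plex LC-MS/MS of the supernatant, with channel sums equalised, gave values recorded as log-two fold change in thermal stability against solvent controls, from duplicates.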

[2] = compound: C/C(=N\NC(=O)C1=CC(=CC=C1)S(=O)(=O)N2CCOCC2)/C3=C(C=CC(=C3)Cl)O
Summary of the method: as §1

[3] = compound: C1=CC(=CC=C1C2=NC3=C(N2)C=C(C=C3)C(=O)N)OC4=CC=C(C=C4)Cl
Summary of the method: as §1

[4] = compound: C1=CC2=C(C=CC(=C2)/C=C\3/C(=O)NC(=NCC4=CC=CS4)S3)N=C1
Summary of the method: as §1

[5] = compound: C1=CC2=NC=CN=C2C=C1/C=C/3\C(=O)NC(=O)S3
Summary of the method: as §1

[6] = compound: C1=CC=C(C=C1)C2=NC(=C(N2)C3=CC=NC=C3)C4=CC(=C(C=C4)Cl)O
Summary of the method: as §1

[7] = compound: C1=CC=C2C(=C1)C3=NNC4=CC=CC(=C43)C2=O
Summary of the method: as §1

[8] = compound: C1CCN(C1)C(=O)NC2=CC=CC(=C2)NC3=NC=C(C(=N3)NCCC4=CN=CN4)Br
Summary of the method: as §1

[9] = compound: C1CN(CCC1(CC2=CC=C(C=C2)Cl)N)C3=NC=NC4=C3C=CN4
Summary of the method: as §1

[10] = compound: C1COCCN1CCN2C3=CC=CC=C3N=C2NC(=O)C4=CC(=CC=C4)[N+](=O)[O-] [IRAK-1-4 Inhibitor I]
Summary of the method: as §1

Measured: log2 fold change

USP32 (UniProt Q8NFA0)
inactive: [1] -0.037 | [2] -0.088 | [3] 0.069 | [4] 0.037 | [5] 0.082 | [6] -0.015 | [7] -0.005 | [8] -0.006 | [9] 0.015 | [10] 0.016

UNC5B (UniProt Q8IZJ1)
inactive: [1] 0.004 | [2] -0.062 | [3] 0.012 | [4] -0.015 | [5] 0.013 | [6] -0.025 | [7] -0.2 | [8] 0.053 | [9] -0.035 | [10] 0.015

UQCRH (UniProt P07919)
inactive: [1] -0.008 | [2] 0.015 | [3] -0.034 | [4] -0.032 | [5] 0.067 | [6] -0.002 | [7] -0.048 | [8] 0.001 | [9] -0.002 | [10] -0.029

USP15 (UniProt Q9Y4E8)
inactive: [1] 0.009 | [2] -0.011 | [3] -0.009 | [4] -0.001 | [5] -0.02 | [6] 0.001 | [7] -0.011 | [8] -0.004 | [9] -0.012 | [10] -0.016

UCKL1 (UniProt Q9NWZ5)
inactive: [1] 0.044 | [2] -0.027 | [3] -0.012 | [4] 0.025 | [5] -0.004 | [6] 0.04 | [7] -0.039 | [8] -0.014 | [9] 0.007 | [10] -0.009

UGGT1 (UniProt Q9NYU2)
inactive: [1] -0.006 | [2] -0.021 | [3] 0.021 | [4] -0.004 | [5] -0.012 | [6] -0.01 | [7] 0.013 | [8] 0 | [9] -0.01 | [10] 0.001

USP10 isoform 2 (UniProt Q14694)
inactive: [1] 0.022 | [2] -0.032 | [3] 0.01 | [4] 0.007 | [5] -0.017 | [6] 0.023 | [7] -0.028 | [8] -0.033 | [9] -0.034 | [10] -0.005

VASP (UniProt P50552)
inactive: [1] 0.001 | [2] -0.028 | [3] 0.017 | [4] -0.006 | [5] -0.035 | [6] -0.003 | [7] -0.02 | [8] -0.006 | [9] 0.035 | [10] 0.014

UVRAG (UniProt Q9P2Y5)
inactive: [1] -0.003 | [2] -0.072 | [3] -0.05 | [4] 0.034 | [5] 0.044 | [6] -0.035 | [7] 0.012 | [8] -0.051 | [9] 0.024 | [10] 0.041

VAMP4 (UniProt O75379)
inactive: [1] 0.005 | [2] -0.018 | [3] -0.005 | [4] 0.006 | [5] 0.037 | [6] -0.003 | [7] -0.006 | [8] 0.004 | [9] -0.098 | [10] 0.019

USP28 isoform 2 (UniProt Q96RU2)
inactive: [1] -0.036 | [2] -0.056 | [3] -0.003 | [4] 0.019 | [5] 0.007 | [6] 0.021 | [7] -0.014 | [8] 0.037 | [9] 0.044 | [10] -0.017

USP24 (UniProt Q9UPU5)
inactive: [1] -0.004 | [2] 0.012 | [3] -0.014 | [4] 0.022 | [5] 0.006 | [6] -0.021 | [7] -0.032 | [8] -0.016 | [9] 0 | [10] -0.017

UTP3 (UniProt Q9NQZ2)
inactive: [1] -0.051 | [2] -1.41 | [3] -0.088 | [4] -0.063 | [5] -0.039 | [6] -0.018 | [7] 0.021 | [8] -0.067 | [9] -0.09 | [10] -0.041

VEZF1 (UniProt Q14119)
inactive: [1] -0.084 | [2] 0.049 | [3] -0.001 | [4] -0.059 | [5] -0.053 | [6] 0.036 | [7] 0.053 | [8] 0.027 | [9] -0.168 | [10] 0.04

UNC119B (UniProt A6NIH7)
inactive: [1] -0.068 | [2] 0.278 | [3] 0.029 | [4] -0.041 | [5] 0.007 | [6] 0.264 | [7] -0.061 | [8] 0.026 | [9] -0.044 | [10] 0.02

UGP2 (UniProt Q16851)
inactive: [1] -0.01 | [2] 0.033 | [3] 0.001 | [4] -0.023 | [5] 0.003 | [6] -0.009 | [7] -0.007 | [8] 0.003 | [9] -0.018 | [10] 0.012

USP4 (UniProt Q13107)
inactive: [1] 0.057 | [2] -0.079 | [3] -0.002 | [4] -0.006 | [5] -0.055 | [6] -0.022 | [7] -0.093 | [8] -0.067 | [9] -0.019 | [10] 0.001

UQCRQ (UniProt O14949)
inactive: [1] 0.016 | [2] 0.001 | [3] 0.031 | [4] 0.024 | [5] -0.041 | [6] -0.031 | [7] 0.011 | [8] -0.003 | [9] -0.049 | [10] 0.007

UROD (UniProt P06132)
inactive: [1] -0.021 | [2] -0.094 | [3] -0.019 | [4] -0.013 | [5] 0.009 | [6] -0.01 | [7] 0.008 | [8] 0.017 | [9] 0.02 | [10] -0.008

UHRF1BP1L (UniProt A0JNW5)
inactive: [1] 0.03 | [2] -0.001 | [3] 0 | [4] -0.033 | [5] 0.003 | [6] -0.006 | [7] -0.02 | [8] -0.013 | [9] 0.017 | [10] 0.029

USO1 isoform 2 (UniProt O60763)
inactive: [1] 0 | [2] 0.011 | [3] 0.005 | [4] 0 | [5] -0.007 | [6] -0.002 | [7] -0.012 | [8] -0.004 | [9] 0.002 | [10] -0.015

UGDH (UniProt O60701)
inactive: [1] 0.002 | [2] 0.046 | [3] -0.02 | [4] -0.009 | [5] 0.02 | [6] -0.041 | [7] -0.051 | [8] -0.004 | [9] -0.052 | [10] -0.053

VAPB (UniProt O95292)
inactive: [1] 0.005 | [2] -0.017 | [3] 0.043 | [4] 0.01 | [5] -0.019 | [6] -0.031 | [7] -0.023 | [8] -0.033 | [9] -0.055 | [10] -0.018

UXT isoform 2 (UniProt Q9UBK9)
inactive: [1] 0.012 | [2] -0.036 | [3] 0.033 | [4] 0.021 | [5] -0.054 | [6] 0.035 | [7] 0.012 | [8] -0.033 | [9] 0.186 | [10] 0.007

VIM (UniProt P08670)
inactive: [1] 0.003 | [2] 0.019 | [3] 0.007 | [4] -0.026 | [5] -0.001 | [6] -0.009 | [7] -0.005 | [8] 0.063 | [9] 0.024 | [10] -0.01

UPRT (UniProt Q96BW1)
inactive: [1] -0.015 | [2] 0.203 | [3] -0.074 | [4] -0.007 | [5] -0.095 | [6] 0 | [7] -0.103 | [8] 0.043 | [9] 0.002 | [10] 0.003

UGGT2 (UniProt Q9NYU1)
inactive: [1] -0.083 | [2] 0.056 | [3] -0.013 | [4] -0.009 | [5] -0.03 | [6] -0.021 | [7] 0.056 | [8] 0.027 | [9] 0.015 | [10] -0.003

Random excerpt: two records from the list.
UGGT2 (UniProt Q9NYU1)
inactive: [1] -0.083 | [2] 0.056 | [3] -0.013 | [4] -0.009 | [5] -0.03 | [6] -0.021 | [7] 0.056 | [8] 0.027 | [9] 0.015 | [10] -0.003

UPRT (UniProt Q96BW1)
inactive: [1] -0.015 | [2] 0.203 | [3] -0.074 | [4] -0.007 | [5] -0.095 | [6] 0 | [7] -0.103 | [8] 0.043 | [9] 0.002 | [10] 0.003

More entries.

UQCC2 (UniProt Q9BRT2)
inactive: [1] 0.037 | [2] 0.044 | [3] -0.039 | [4] 0.06 | [5] 0.001 | [6] -0.007 | [7] 0 | [8] -0.05 | [9] -0.023 | [10] 0.016

USP48 isoform 8 (UniProt Q86UV5)
inactive: [1] 0.001 | [2] -0.059 | [3] -0.011 | [4] -0.008 | [5] 0.005 | [6] 0.02 | [7] -0.02 | [8] 0 | [9] 0.018 | [10] -0.014
